Measurements as given in PMC11746154.

Tested on: Spo11 + Rec102 + Rec104 + Ski8
Assay: EMSA
Settings: 5 mM MgCl2, quantification only in figure/source data; 5' phosphate (32P, T4 PNK); EMSA: 25 mM Tris-HCl pH 7.5, 7.5% glycerol, 100 mM NaCl, 2 mM DTT, 5 mM MgCl2, 1 mg/ml BSA, 0.1 nM DNA, 30 min 30 C; recombinant protein; label: 5'-32P; folded or branched DNA

“TAGCAATGTAATCGTCTATGACGTTAACGTCATAGACGATTACATTGC [hairpin DNA, 32P-labeled (EMSA)]”: binds.

Construct, isoform or probe ends are uncertain for at least one entry. At least one verdict was read from the data and is not stated in words by the source.
